PubChem BioAssay AID652243 – Drosophila RNAi Screening Center, 2013

Test: 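Knock-downs that decrease or increase androgen receptor reporter signal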 (primary screen)
Cells: Drosophila S2R+ cells
Knock-down reagent: long dsRNA against Drosophila genes
Duration: 72 h (48 h, then 24 h hormone)
Conditions: synthetic androgen R1881 at 10 nM for 24 h
Measurement: 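Per-well raw luminescence of the androgen-driven firefly reporter and of the Renilla control, two replicates each, without normalisation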
Direction: firefly reporter light: higher = more light from androgen-responsive reporter; Renilla control light: higher = more constitutive control signal (cell number, transfection)
Hit rule: 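Across duplicate plates, a knock-down whose log firefly/Renilla ratio shifted a set fold down or up from the GFP/LacZ control mean was a hit; the downward cut appears as both 1.5 and 3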
Calls: active = hit: reporter lowered or raised; inactive = no hit
The deposit covers about 24,000 reagents; below is an unselected part of those that have a named target and a result. Of all reagents, 246 (1%) are marked active. 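Plates not normalised; calls are printed but the firefly/Renilla ratio behind them is not deposited; fold cut for lowering reported inconsistently.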 Raw values vary from plate to plate and are shown uncorrected. Unmarked entries are inactive. The numbers tell different reagents against one gene apart. Names joined by + are all predicted targets of the reagent. The record does not give: the amount of reagent.

| predicted target | reagent no. | firefly reporter light, replicate 1 | firefly reporter light, replicate 2 | Renilla control light, replicate 1 | Renilla control light, replicate 2 |
| --- | --- | --- | --- | --- | --- |
| Reg-5 | 1 | 5.16e5 | 1.23e6 | 8.43e5 | 1.72e6 |
| CG7653 | 1 | 1.43e5 | 1.29e5 | 1.70e6 | 1.56e6 |
| Axn | 1 | 3.60e5 | 3.77e5 | 1.83e6 | 2.35e6 |
| Axn | 2 | 9.46e5 | 6.38e5 | 6.88e5 | 6.88e5 |
| Sp1 | 1 | 7.23e5 | 7.50e5 | 1.15e6 | 1.24e6 |
| Sp1 | 2 | 1.71e5 | 1.44e5 | 2.94e6 | 2.42e6 |
| Sp1 | 3 | 3.79e5 | 2.75e5 | 1.01e6 | 6.93e5 |
| CG14102 | 1 | 1.51e5 | 1.78e5 | 1.46e6 | 1.68e6 |
| bun | 1 | 3.04e5 | 3.58e5 | 5.70e5 | 5.33e5 |
| bun | 2 | 7.40e5 | 7.22e5 | 1.60e6 | 1.59e6 |
| bun | 3 | 3.90e5 | 4.73e5 | 6.74e5 | 6.48e5 |
| CG14803 | 1 | 3.10e5 | 3.36e5 | 4.35e6 | 3.46e6 |
| SPE | 1 | 55751 | 78037 | 3.65e5 | 4.45e5 |
| SPE | 2 | 7.71e5 | 6.53e5 | 7.70e5 | 6.95e5 |
| CG7606 | 1 | 2.32e5 | 2.47e5 | 2.28e6 | 2.54e6 |
| mthl14 | 1 | 92539 | 1.65e5 | 2.70e5 | 3.79e5 |
| Tango6 | 1 | 3.50e5 | 4.63e5 | 1.13e6 | 1.17e6 |
| Tango6 | 2 | 2.80e5 | 3.93e5 | 6.77e5 | 6.77e5 |
| KrT95D | 1 | 12513 | 27734 | 2.33e5 | 2.95e5 |
| KrT95D | 2 | 4.24e5 | 4.24e5 | 5.17e5 | 4.81e5 |
| CG4000 | 1 | 1.96e5 | 1.14e5 | 1.74e6 | 1.56e6 |
| CG4000 | 2 | 5.16e5 | 6.21e5 | 1.83e6 | 1.76e6 |
| CG4000 | 3 | 8.42e5 | 9.66e5 | 1.18e6 | 1.01e6 |
| Kyat | 1 | 2.28e5 | 2.00e5 | 2.57e6 | 2.40e6 |
| Pdh | 1 | 80871 | 67526 | 1.31e6 | 7.32e5 |
| Pdh | 2 | 3.43e5 | 2.98e5 | 9.19e5 | 6.39e5 |
| CG14625 | 1 | 1.27e5 | 1.70e5 | 2.16e6 | 1.86e6 |
| CG14625 | 2 | 7.51e5 | 9.02e5 | 9.44e5 | 8.30e5 |

5 entries from above, reduced to “Renilla control light, replicate 1”:
Sp1 #1 = 1.15e6
Sp1 #2 = 2.94e6
Sp1 #3 = 1.01e6
CG14102 = 1.46e6
bun #1 = 5.70e5

The listing continues:
| predicted target | reagent no. | firefly reporter light, replicate 1 | firefly reporter light, replicate 2 | Renilla control light, replicate 1 | Renilla control light, replicate 2 |
| --- | --- | --- | --- | --- | --- |
| slf | 1 | 1.14e5 | 1.21e5 | 5.43e5 | 7.23e5 |
| slf | 2 | 3.58e5 | 3.99e5 | 3.28e5 | 3.32e5 |
| nAChRalpha3 | 1 | 2.49e5 | 2.33e5 | 2.58e6 | 3.54e6 |
| nAChRalpha3 | 2 | 6.98e5 | 5.28e5 | 5.85e5 | 6.54e5 |
| Ttc1 | 1 | 2.92e5 | 2.83e5 | 3.27e6 | 3.60e6 |
| Ttc1 | 2 | 6.09e5 | 9.39e5 | 1.50e6 | 1.60e6 |
| Ttc1 | 3 | 3.93e5 | 3.95e5 | 7.62e5 | 7.12e5 |
| prd1 | 1 | 86936 | 91952 | 1.74e6 | 1.97e6 |
| COX5BL | 1 | 2.37e5 | 2.27e5 | 2.40e6 | 1.98e6 |
| COX5BL | 2 | 3.19e5 | 2.81e5 | 6.84e5 | 5.09e5 |
| AnxB10 | 1 | 94856 | 55607 | 8.27e5 | 8.27e5 |
| AnxB10 | 2 | 4.40e5 | 5.73e5 | 8.72e5 | 8.80e5 |
| Eno | 1 | 1.12e5 | 1.38e5 | 8.83e5 | 1.07e6 |
| CG34425 | 1 | 93623 | 67946 | 2.92e6 | 1.82e6 |
| CG34425 | 2 | 6.30e5 | 6.35e5 | 1.63e6 | 2.19e6 |
| Spn28B | 1 | 4.00e5 | 5.29e5 | 2.50e6 | 2.11e6 |
| ras | 1 | 1.25e5 | 98857 | 8.35e5 | 7.35e5 |
| ras | 2 | 2.63e5 | 2.13e5 | 6.47e5 | 6.86e5 |
| CG15525 | 1 | 1.38e5 | 1.26e5 | 2.04e6 | 2.21e6 |
| CG15525 | 2 | 2.80e5 | 3.53e5 | 7.93e5 | 1.13e6 |
| edl | 1 | 1.03e6 | 1.29e6 | 1.96e6 | 1.85e6 |
| edl | 2 | 8.11e5 | 5.70e5 | 1.80e6 | 1.55e6 |
| AP-1sigma | 1 | 1.00e5 | 1.47e5 | 1.31e6 | 1.31e6 |
| Gagr | 1 | 18324 | 24144 | 1.91e5 | 2.32e5 |
| EndoU | 1 | 80008 | 80546 | 6.88e5 | 5.59e5 |
| asRNA:CR43470 + CG14830 | 1 | 2.33e5 | 1.10e5 | 1.88e6 | 9.76e5 |
| asRNA:CR43470 + CG14830 | 2 | 4.89e5 | 4.13e5 | 5.52e5 | 6.61e5 |
| CG13390 | 1 | 2.14e5 | 1.52e5 | 1.88e6 | 1.25e6 |
| CG13390 | 2 | 7.67e5 | 1.07e6 | 8.66e5 | 8.43e5 |
| CG13390 | 3 | 2.78e5 (active) | 2.12e5 | 1.03e6 | 9.54e5 |
